No constants are given. Whether binding was seen depends on the method and setting. Some results given as binding are weak or reduced against the parent protein; the word gives no strength.
Target: AXL (ACRO Biosystems) (UniProt P30530)
Assay: ELISA, AXL (ACRO Biosystems) coated at 1 ug/ml

Chains of the proteins cited; added tags and fusions are not shown. Residues count along the entry.
UniProt P30530, residues 26-449: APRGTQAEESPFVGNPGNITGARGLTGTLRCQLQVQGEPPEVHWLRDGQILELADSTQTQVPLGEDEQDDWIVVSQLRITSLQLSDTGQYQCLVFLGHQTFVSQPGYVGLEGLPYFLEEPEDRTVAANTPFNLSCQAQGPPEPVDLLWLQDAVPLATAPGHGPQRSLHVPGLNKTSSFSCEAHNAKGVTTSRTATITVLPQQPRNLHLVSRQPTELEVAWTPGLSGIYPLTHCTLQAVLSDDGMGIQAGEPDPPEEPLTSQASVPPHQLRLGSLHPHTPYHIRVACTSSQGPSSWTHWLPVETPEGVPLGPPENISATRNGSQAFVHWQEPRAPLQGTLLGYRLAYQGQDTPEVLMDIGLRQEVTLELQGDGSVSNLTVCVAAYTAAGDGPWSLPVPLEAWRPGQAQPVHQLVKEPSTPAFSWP

B1: C6G12 antibody (Chimeric 6G12) (antibody, human IgG1, kappa, V domains shown)
VH: QVQLKQSGPGLVKPSQSLSLTCSVTGFSISSGYYWNWIRQFPGNKLEWMGYRSYDGSNNYNPSLKNRISITRDTSKNQFFLKLNSVTTEDTATYYCARGWLLHYTMDYWGQGTSVTVSS
VL: ELVMTQSPFSNAVTLGTSASISCRSSRSLLHSNGFTYLYWYLQKPGQSPQLLIYQMSNLASGVPDRFSSSGSGTDFTLRISRVEAEDVGVYYCGQNLELPLTFGAGTKLELKR
binding: binds
